Results on 3 molecules are retold here after publication PMC7094869.

No constants are given. Whether binding was seen depends on the method and setting. Binding seen in cells or lysates may run through a third protein. Some entries that bind do so weakly or less than the wild type. For some of these results: Tags and fused reporters may be left off the sequences shown.

Assay [1] concerns the target T1, Klp10A (Drosophila melanogaster (endogenous in testes)) (UniProt Q960Z0).
T1 sequence: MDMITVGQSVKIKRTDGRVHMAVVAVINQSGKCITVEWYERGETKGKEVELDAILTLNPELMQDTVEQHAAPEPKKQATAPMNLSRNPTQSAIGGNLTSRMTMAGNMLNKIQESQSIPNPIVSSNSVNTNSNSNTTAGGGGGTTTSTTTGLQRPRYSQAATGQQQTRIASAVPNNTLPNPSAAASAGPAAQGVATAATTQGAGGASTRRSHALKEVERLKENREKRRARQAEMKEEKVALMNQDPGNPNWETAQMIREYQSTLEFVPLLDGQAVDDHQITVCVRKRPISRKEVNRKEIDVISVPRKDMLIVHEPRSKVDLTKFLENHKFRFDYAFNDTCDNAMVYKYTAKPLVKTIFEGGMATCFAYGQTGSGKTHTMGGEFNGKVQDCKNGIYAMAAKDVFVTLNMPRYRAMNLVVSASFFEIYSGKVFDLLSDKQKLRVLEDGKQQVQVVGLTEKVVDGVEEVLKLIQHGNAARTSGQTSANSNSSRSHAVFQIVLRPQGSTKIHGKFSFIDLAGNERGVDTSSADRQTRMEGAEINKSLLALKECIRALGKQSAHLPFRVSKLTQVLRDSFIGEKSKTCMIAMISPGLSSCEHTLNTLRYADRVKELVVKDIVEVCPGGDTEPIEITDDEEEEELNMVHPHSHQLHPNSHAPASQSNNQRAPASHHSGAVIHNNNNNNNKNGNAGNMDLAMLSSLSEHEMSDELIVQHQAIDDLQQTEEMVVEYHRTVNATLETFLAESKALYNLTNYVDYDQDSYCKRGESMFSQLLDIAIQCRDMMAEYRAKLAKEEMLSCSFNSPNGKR
Kind of assay: co-IP; anti-Klp10A immunoprecipitation; extract of Dpp-expressing (SG tumor) testes (nos-gal4>UAS-dpp); western blot. (In general: In western blotting, separated proteins are transferred to a membrane and probed.)

Assay [2] has as its target T2, GFP-Aub (Drosophila melanogaster) (UniProt O76922).
T2 sequence: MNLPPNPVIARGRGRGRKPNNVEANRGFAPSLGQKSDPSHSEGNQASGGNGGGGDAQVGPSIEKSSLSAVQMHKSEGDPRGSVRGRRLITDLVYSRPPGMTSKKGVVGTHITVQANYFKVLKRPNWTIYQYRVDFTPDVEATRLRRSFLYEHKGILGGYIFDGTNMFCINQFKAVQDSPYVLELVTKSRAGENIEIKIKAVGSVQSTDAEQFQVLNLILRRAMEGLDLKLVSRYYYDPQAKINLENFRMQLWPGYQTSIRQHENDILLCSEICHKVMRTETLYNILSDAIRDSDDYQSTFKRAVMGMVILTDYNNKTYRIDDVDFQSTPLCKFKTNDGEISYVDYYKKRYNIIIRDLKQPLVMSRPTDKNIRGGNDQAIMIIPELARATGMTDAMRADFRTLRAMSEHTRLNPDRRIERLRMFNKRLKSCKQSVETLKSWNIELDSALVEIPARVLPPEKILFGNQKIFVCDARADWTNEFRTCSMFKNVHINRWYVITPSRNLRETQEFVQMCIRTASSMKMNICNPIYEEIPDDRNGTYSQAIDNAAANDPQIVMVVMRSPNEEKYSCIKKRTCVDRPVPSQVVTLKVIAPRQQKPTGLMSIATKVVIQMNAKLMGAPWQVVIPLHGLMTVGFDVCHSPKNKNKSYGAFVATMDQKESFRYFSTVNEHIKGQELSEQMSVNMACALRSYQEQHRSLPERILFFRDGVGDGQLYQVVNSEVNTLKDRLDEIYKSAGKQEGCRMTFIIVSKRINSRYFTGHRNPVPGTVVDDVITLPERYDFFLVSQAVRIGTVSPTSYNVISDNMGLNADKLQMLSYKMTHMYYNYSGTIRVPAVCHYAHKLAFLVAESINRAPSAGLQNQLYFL
In words: co-IP; GFP-Trap magnetic beads on GFP-Aub; extract of Upd-expressing testes (nos-gal4>UAS-upd UAS-gfp-aub, control nos-gal4>UAS-upd UAS-gfp); western blot.

Assay [3] deals with T3, Vasa (Drosophila melanogaster (endogenous in testes)) (UniProt P09052).
T3 sequence: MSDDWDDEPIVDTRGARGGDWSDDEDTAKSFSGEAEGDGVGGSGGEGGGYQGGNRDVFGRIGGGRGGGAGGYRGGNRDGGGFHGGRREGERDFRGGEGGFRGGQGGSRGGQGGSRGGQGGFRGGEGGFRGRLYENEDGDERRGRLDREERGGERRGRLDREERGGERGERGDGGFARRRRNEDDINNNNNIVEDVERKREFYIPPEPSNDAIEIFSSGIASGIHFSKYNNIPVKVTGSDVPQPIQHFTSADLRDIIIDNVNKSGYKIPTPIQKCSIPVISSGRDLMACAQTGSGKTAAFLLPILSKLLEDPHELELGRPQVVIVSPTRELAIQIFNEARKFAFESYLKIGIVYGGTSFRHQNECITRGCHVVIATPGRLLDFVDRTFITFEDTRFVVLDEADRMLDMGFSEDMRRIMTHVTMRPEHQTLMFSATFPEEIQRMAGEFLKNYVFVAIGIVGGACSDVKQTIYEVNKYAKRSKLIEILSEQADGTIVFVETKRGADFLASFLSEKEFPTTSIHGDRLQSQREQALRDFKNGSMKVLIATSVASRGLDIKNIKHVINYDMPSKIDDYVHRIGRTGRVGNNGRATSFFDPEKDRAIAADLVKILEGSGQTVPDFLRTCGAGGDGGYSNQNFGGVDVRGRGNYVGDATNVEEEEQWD
In words: co-IP; Vasa precipitated, Klp10A detected; extract of Dpp-expressing (SG tumor) testes (nos-gal4>UAS-dpp); western blot.

B1: Argonaute 3 (protein, UniProt Q7PLK0 1-867)
chain: MSGRGNLLSLFNKNAGNMGKSISSKDHEIDSGLDFNNSESSGERLLSSHNIETDLITTLQHVNISVGRGRARLIDTLKTDDHTSNQFITSESKENITKKTKGPESEAIASENGLFFPDLIYGSKGSSVNIYCNYLKLTTDESKGVFNYEVRFFPPIDSVHLRIKYLNDHKDKLGGTKTFDGNTLYLPILLPNKMTVFISKAEDVELQIRILYKKKEEMRNCTQLYNILFDRVMKVLNYVKFDRKQFDPSRPKIIPLAKLEVWPGYVTAVDEYKGGLMLCCDVSHRILCQKTVLEMLVDLYQQNVEHYQESARKMLVGNIVLTRYNNRTYKINDICFDQNPTCQFEIKTGCTSYVEYYKQYHNINIKDVNQPLIYSIKKSRGIPAERENLQFCLIPELCYLTGLRDEVRSDNKLMREIATFTRVSPNQRQMALNKFYENVSNTPAAQEILNSWGLSLTNNSNKISGRQMDIEQIYFSKISVSAGRSAEFSKHAVTNEMLKVVHLSKWIIIHLRNYRQAATSLLDNMKQACESLGMNISNPTMISLDHDRIDAYIQALRRNITMNTQMVVCICHNRRDDRYAAIKKICCSEIPIPSQVINAKTLQNDLKIRSVVQKIVLQMNCKLGGSLWTVKIPFKNVMICGIDSYHDPSNRGNSVAAFVASINSSYSQWYSKAVVQTKREEIVNGLSASFEIALKMYRKRNGKLPTNIIIYRDGIGDGQLYTCLNYEIPQFEMVCGNRIKISYIVVQKRINTRIFSGSGIHLENPLPGTVVDQHITKSNMYDFFLVSQLVRQGTVTPTHYVVLRDDCNYGPDIIQKLSYKLCFLYYNWAGTVRIPACCMYAHKLAYLIGQSIQRDVAEALSEKLFYL
In the case of B1, the binding entry in assay [1] is “binds”.

B2: Piwi (protein, UniProt Q9VKM1 1-843)
chain: MADDQGRGRRRPLNEDDSSTSRGSGDGPRVKVFRGSSSGDPRADPRIEASRERRALEEAPRREGGPTERKPWGDQYDYLNTRPAELVSKKGTDGVPVMLQTNFFRLKTKPEWRIVHYHVEFEPSIENPRVRMGVLSNHANLLGSGYLFDGLQLFTTRKFEQEITVLSGKSKLDIEYKISIKFVGFISCAEPRFLQVLNLILRRSMKGLNLELVGRNLFDPRAKIEIREFKMELWPGYETSIRQHEKDILLGTEITHKVMRTETIYDIMRRCSHNPARHQDEVRVNVLDLIVLTDYNNRTYRINDVDFGQTPKSTFSCKGRDISFVEYYLTKYNIRIRDHNQPLLISKNRDKALKTNASELVVLIPELCRVTGLNAEMRSNFQLMRAMSSYTRMNPKQRTDRLRAFNHRLQNTPESVKVLRDWNMELDKNVTEVQGRIIGQQNIVFHNGKVPAGENADWQRHFRDQRMLTTPSDGLDRWAVIAPQRNSHELRTLLDSLYRAASGMGLRIRSPQEFIIYDDRTGTYVRAMDDCVRSDPKLILCLVPNDNAERYSSIKKRGYVDRAVPTQVVTLKTTKNRSLMSIATKIAIQLNCKLGYTPWMIELPLSGLMTIGFDIAKSTRDRKRAYGALIASMDLQQNSTYFSTVTECSAFDVLANTLWPMIAKALRQYQHEHRKLPSRIVFYRDGVSSGSLKQLFEFEVKDIIEKLKTEYARVQLSPPQLAYIVVTRSMNTRFFLNGQNPPPGTIVDDVITLPERYDFYLVSQQVRQGTVSPTSYNVLYSSMGLSPEKMQKLTYKMCHLYYNWSGTTRVPAVCQYAKKLATLVGTNLHSIPQNALEKKFYYL
Regarding B2, in assay [1], the binding entry is reported as “binds”.

B3: Klp10A (protein, UniProt Q960Z0 1-805)
chain: MDMITVGQSVKIKRTDGRVHMAVVAVINQSGKCITVEWYERGETKGKEVELDAILTLNPELMQDTVEQHAAPEPKKQATAPMNLSRNPTQSAIGGNLTSRMTMAGNMLNKIQESQSIPNPIVSSNSVNTNSNSNTTAGGGGGTTTSTTTGLQRPRYSQAATGQQQTRIASAVPNNTLPNPSAAASAGPAAQGVATAATTQGAGGASTRRSHALKEVERLKENREKRRARQAEMKEEKVALMNQDPGNPNWETAQMIREYQSTLEFVPLLDGQAVDDHQITVCVRKRPISRKEVNRKEIDVISVPRKDMLIVHEPRSKVDLTKFLENHKFRFDYAFNDTCDNAMVYKYTAKPLVKTIFEGGMATCFAYGQTGSGKTHTMGGEFNGKVQDCKNGIYAMAAKDVFVTLNMPRYRAMNLVVSASFFEIYSGKVFDLLSDKQKLRVLEDGKQQVQVVGLTEKVVDGVEEVLKLIQHGNAARTSGQTSANSNSSRSHAVFQIVLRPQGSTKIHGKFSFIDLAGNERGVDTSSADRQTRMEGAEINKSLLALKECIRALGKQSAHLPFRVSKLTQVLRDSFIGEKSKTCMIAMISPGLSSCEHTLNTLRYADRVKELVVKDIVEVCPGGDTEPIEITDDEEEEELNMVHPHSHQLHPNSHAPASQSNNQRAPASHHSGAVIHNNNNNNNKNGNAGNMDLAMLSSLSEHEMSDELIVQHQAIDDLQQTEEMVVEYHRTVNATLETFLAESKALYNLTNYVDYDQDSYCKRGESMFSQLLDIAIQCRDMMAEYRAKLAKEEMLSCSFNSPNGKR
With B3, the binding result in assay [2] and in assay [3] was “binds” each time.
